Experimental data taken from patent publication US9198422B2, “Pesticidal pyrazole compounds” (BASF SE, priority 2011, dated 2015).
Some of these results come from one statement about several compounds together.

Key:
Type in all cases: in vivo
Aphis craccivora = assay: B.1 Cowpea aphid spray test on potted cowpea plants; settings: 500 ppm; population reduction assessed after 24, 72 and 120 hours
Dichromothrips corbetti = assay: B.8 Orchid thrips petal dip test; settings: 500 ppm; after 72 hours
Description: B.8 Orchid Thrips (Dichromothrips corbetti)
The active compounds were formulated as a 1:1 (vol:vol) water:aceton solution. Surfactant (Alkamuls EL 620) was added at the rate of 0.1% (vol/vol). Vanda orchids petals were cleaned, washed and air dried prior to spraying. Petals were dipped into the test solution for 3 seconds, air dried, placed inside a resealable plastic and inoculated with 20 adults. The treated petals were kept inside the holding room at 28-29° C. and relative humidity of 50-60%. Percent mortality was recorded after 72 hours.

Aphis gossypii = assay: B.2 Cotton aphid, mixed life stages, spray test on cotton plants; settings: 10 ppm; after 5 days
Myzus persicae = assay: B.5 Green peach aphid spray test on bell pepper plants; settings: 10 ppm; after 5 days
Megoura viciae = assay: B.4 Vetch aphid bean leaf disk microtiter test; settings: 2500 ppm; 6 days
Bemisia argentifolii = assay: B.3 Silverleaf whitefly, adult, spray test on cotton plants; settings: 10 ppm; 3 days after treatment
Description: B.3 Silverleaf Whitefly (Bemisia argentifolii, Adult)
The active compounds were formulated in cyclohexanone as a 10,000 ppm solution supplied in 1.3 ml ABgene® tubes. These tubes were inserted into an automated electrostatic sprayer equipped with an atomizing nozzle and they served as stock solutions for which lower dilutions were made in 1:1 (vol:vol) water:aceton. A nonionic surfactant (Kinetic®) was included in the solution at a volume of 0.01% (v/v).
Cotton plants at the cotyledon stage (one plant per pot) were sprayed by an automated electrostatic plant sprayer equipped with an atomizing spray nozzle. The plants were dried in the sprayer fume hood and then removed from the sprayer. Each pot was placed into a plastic cup and 10 to 12 whitefly adults (approximately 3-5 days old) were introduced. The insects were collected using an aspirator and 0.6 cm, nontoxic Tygon® tubing (R-3603) connected to a barrier pipette tip. The tip, containing the collected insects, was then gently inserted into the soil containing the treated plant, allowing insects to crawl out of the tip to reach the foliage for feeding. Cups were covered with a reusable screened lid (150-micron mesh polyester screen PeCap from Tetko, Inc.). Test plants were maintained in a growth room at 25° C. and 20-40% relative humidity for 3 days, avoiding direct exposure to fluorescent light (24 hour photoperiod) to prevent trapping of heat inside the cup. Mortality was assessed 3 days after treatment, compared to untreated control plants.

Measured: mortality in comparison with untreated controls

Cc1c(C(=O)Nc2ccnnc2)cnn1C(C1CC1)C(F)(F)F (stereo not shown) [I-297]
at least 75%: Aphis craccivora | Dichromothrips corbetti

Cc1c(C(=O)Nc2cccnc2)cnn1C(C)c1ccccn1 (racemic) [I-193]
at least 75%: Aphis craccivora | Aphis gossypii | Myzus persicae | Dichromothrips corbetti

CC(n1ncc(C(=O)N(C)c2cccnc2)c1C(F)(F)F)C(C)(C)C (stereo not shown) [I-310]
at least 75%: Aphis craccivora | Dichromothrips corbetti

CCN(C(=O)c1cnn(C(C)c2ccccn2)c1C)c1cccnc1 (racemic) [I-191]
at least 75%: Aphis craccivora | Aphis gossypii | Myzus persicae | Dichromothrips corbetti

Cc1c(C(=O)N(C)c2cccnc2)cnn1C(C)C1(S(C)(=O)=O)CC1 (stereo not shown) [I-308]
at least 75%: Aphis craccivora | Megoura viciae | Dichromothrips corbetti

Cc1c(C(=O)N(C)c2ccnnc2)cnn1C(C)c1ccccn1 (stereo not shown) [I-189]
at least 75%: Aphis craccivora | Aphis gossypii | Myzus persicae | Dichromothrips corbetti

Cc1c(C(=O)N(C)c2ccnnc2)cnn1C(C)C1(S(C)(=O)=O)CC1 (stereo not shown) [I-305]
at least 75%: Aphis craccivora | Megoura viciae | Dichromothrips corbetti

CCN(C(=O)c1cnn(C(C)CC#N)c1C)c1cccnc1 (stereo not shown) [I-78]
not listed: Bemisia argentifolii
at least 75%: all other assays above

Cc1c(C(=O)N(C)c2cccnc2)cnn1C(C)C(C)F (single isomer, unassigned) [I-158]
at least 75%: Aphis craccivora | Megoura viciae | Dichromothrips corbetti

CCN(C(=O)c1cnn(C(C)c2ccncc2)c1C)c1cccnc1 (racemic) [I-186]
at least 75%: Aphis craccivora | Aphis gossypii | Myzus persicae | Dichromothrips corbetti

Cc1c(C(=O)N(C)c2cccnc2)cnn1C(C(C)C)C(F)(F)F (stereo not shown) [I-280]
at least 75%: Aphis craccivora | Dichromothrips corbetti

CCN(C(=O)c1cnn(C(C(C)C)C(F)(F)F)c1C)c1cccnc1 (stereo not shown) [I-281]
at least 75%: Aphis craccivora | Dichromothrips corbetti

Cc1c(C(=O)Nc2ccnnc2)cnn1C1CCOc2ccccc21 (stereo not shown) [I-205]
at least 75%: Aphis craccivora | Aphis gossypii | Myzus persicae | Dichromothrips corbetti

CCN(C(=O)c1cnn(C(C)C2(S(C)(=O)=O)CC2)c1C)c1ccnnc1 (stereo not shown) [I-306]
at least 75%: Aphis craccivora | Megoura viciae | Dichromothrips corbetti

CCN(C(=O)c1cnn(C(C)C(F)F)c1C)c1cccnc1 (stereo not shown) [I-203]
at least 75%: Aphis craccivora | Aphis gossypii | Myzus persicae | Dichromothrips corbetti

Cc1c(C(=O)Nc2cccnc2)cnn1C(C(C)C)C(F)(F)F (stereo not shown) [I-279]
at least 75%: Aphis craccivora | Dichromothrips corbetti

Cc1c(C(=O)N(C)c2ccnnc2)cnn1C(C1CC1)C(F)(F)F (stereo not shown) [I-298]
at least 75%: Aphis craccivora | Dichromothrips corbetti

CCN(C(=O)c1cnn(C(C(C)C)C(F)(F)F)c1C)c1ccnnc1 (stereo not shown) [I-278]
at least 75%: Aphis craccivora | Dichromothrips corbetti

COCN(C(=O)c1cnn(C(C)(C)C(F)(F)F)c1C)c1ccnnc1 [I-88]
not listed: Dichromothrips corbetti
at least 75%: all other assays above

Cc1c(C(=O)Nc2ccnnc2)cnn1C(C)C(F)(F)F (stereo not shown) [I-369]
not listed: Dichromothrips corbetti
at least 75%: all other assays above

Cc1c(C(=O)N(C)c2cccnc2)cnn1C(C)c1ccncc1 (racemic) [I-187]
at least 75%: Aphis craccivora | Dichromothrips corbetti

Cc1c(C(=O)Nc2cccnc2)cnn1C(C1CC1)C(F)(F)F (stereo not shown) [I-300]
at least 75%: Aphis craccivora | Aphis gossypii | Myzus persicae | Dichromothrips corbetti

Cc1c(C(=S)N(C)c2cccnc2)cnn1C(C)C(F)(F)F (racemic) [I-61]
not listed: Dichromothrips corbetti
at least 75%: all other assays above

COCCC(C)n1ncc(C(=O)Nc2cccnc2)c1C (stereo not shown) [I-135]
not listed: Dichromothrips corbetti
at least 75%: all other assays above

CCN(C(=O)c1cnn(C(C2CC2)C(F)(F)F)c1C)c1ccnnc1 (stereo not shown) [I-299]
at least 75%: Aphis craccivora | Dichromothrips corbetti

CCN(C(=O)c1cnn(C(C)(C)C(F)(F)F)c1C)c1cccnc1 [I-86]
at least 75%: Aphis craccivora | Megoura viciae | Myzus persicae | Dichromothrips corbetti

Cc1c(C(=O)Nc2ccnnc2)cnn1C(C)C(C)F (single isomer, unassigned) [I-154]
at least 75%: Aphis craccivora | Megoura viciae | Dichromothrips corbetti

CCN(C(=O)c1cnn(C(C)CC(C)(C)OC)c1C)c1ccnnc1 (stereo not shown) [I-18]
not listed: Dichromothrips corbetti
at least 75%: all other assays above

CCOCN(C(=O)c1cnn(C(C)C(F)(F)F)c1C)c1ccnnc1 (stereo not shown) [I-27]
not listed: Dichromothrips corbetti
at least 75%: all other assays above

CCN(C(=O)c1cnn(C2CCCC2)c1C)c1ccnnc1 [I-6]
not listed: Dichromothrips corbetti
at least 75%: all other assays above

CCN(C(=O)c1cnn(C2(C#N)CC2)c1C)c1ccnnc1 [I-183]
not listed: Dichromothrips corbetti
at least 75%: all other assays above

COC(C)(C)CC(C)n1ncc(C(=O)Nc2ccnnc2)c1C (stereo not shown) [I-20]
not listed: Dichromothrips corbetti
at least 75%: all other assays above
